Experimental data: PubChem BioAssay AID1159578 (Peter MacCallum Cancer Centre, 2015)
Screen: 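Knock-downs that alter how fast lymphatic endothelial cells migrate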 (primary screen). System: human lymphatic endothelial cells. Reagent: siRNA pool against human genes, 40 nM. Timing: 48 h after transfection. Measured: 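Cells stained with dye and imaged after a scratch; covered wound area and nuclei counted, duplicates averaged, migration set against mock wells and turned into a robust z-score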. Reading the numbers: migration robust z-score: higher = faster migration into the scratch; nuclei per well: higher = more cells in the well. Hit rule: 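Pools averaging fewer than 3300 nuclei are never called; remaining pools count as changed when migration robust z lies outside -2 to 2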. Meaning of the calls: active = migration changed; inactive = no migration change, or too few cells.
The deposit covers about 18,000 reagents; this is an unselected part. About 1,030 of them (5.7%) count as active. 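Inactive calls also include pools with fewer than 3300 nuclei, whose migration was not assessed.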 Raw values are not corrected between plates. A number with no mark means an inactive call. Further read-outs or replicates are left out here.

target | migration robust z-score | migration class with cell-count check | nuclei per well, duplicate mean
NAE1 (NEDD8 activating enzyme E1 subunit 1) | -0.1 | migration z between -2 and 2; enough cells | 6268
ASS1 (argininosuccinate synthase 1) | -1.03 | migration z between -2 and 2; enough cells | 5742
DDB1 (damage specific DNA binding protein 1) | -0.78 | migration z between -2 and 2; enough cells | 5392
EFCAB11 (EF-hand calcium binding domain 11) | -1.02 | migration z between -2 and 2; enough cells | 5799
METTL5 (methyltransferase 5, N6-adenosine) | 0.24 | migration z between -2 and 2; enough cells | 5890
C9orf152 (chromosome 9 open reading frame 152) | -1.07 | migration z between -2 and 2; enough cells | 5647
AGPAT2 (1-acylglycerol-3-phosphate O-acyltransferase 2) | -0.12 | migration z between -2 and 2; enough cells | 6991
RPP25L (ribonuclease P/MRP subunit p25 like) | -0.84 | migration z between -2 and 2; enough cells | 4878
LRIG2 (leucine rich repeats and immunoglobulin like domains 2) | -0.84 | migration z between -2 and 2; enough cells | 4280
CCDC54 (coiled-coil domain containing 54) | -0.58 | migration z between -2 and 2; enough cells | 6237
REP15 (RAB15 effector protein) | 0.34 | migration z between -2 and 2; enough cells | 6038
USP6NL (USP6 N-terminal like) | -1.25 | migration z between -2 and 2; enough cells | 5224
BMP15 (bone morphogenetic protein 15) | 0.94 | migration z between -2 and 2; enough cells | 5546
KLRG2 (killer cell lectin like receptor G2) | -1.92 | migration z between -2 and 2; enough cells | 6245
VN1R1 (vomeronasal 1 receptor 1) | -2.91 | under 3300 nuclei; migration not judged | 3044
PLPP5 (phospholipid phosphatase 5) | 0.78 | migration z between -2 and 2; enough cells | 7248
PALS1 (protein associated with LIN7 1, MAGUK p55 family member) | -0.4 | migration z between -2 and 2; enough cells | 5643
CES2 (carboxylesterase 2) | -0.5 | migration z between -2 and 2; enough cells | 5322
FBXO4 (F-box protein 4) | -3.27 (active) | migration z below -2; enough cells | 4852
OR5A1 (olfactory receptor family 5 subfamily A member 1) | -0.27 | migration z between -2 and 2; enough cells | 6363
CIMIP1 (ciliary microtubule inner protein 1) | 0.26 | migration z between -2 and 2; enough cells | 5582
CARF (calcium responsive transcription factor) | -0.32 | migration z between -2 and 2; enough cells | 5290
OR4X2 (olfactory receptor family 4 subfamily X member 2) | 0.9 | migration z between -2 and 2; enough cells | 5048
SEMA5A (semaphorin 5A) | 1.02 | migration z between -2 and 2; enough cells | 5450
CCDC38 (coiled-coil domain containing 38) | -1.57 | migration z between -2 and 2; enough cells | 4538
EBPL (EBP like) | 0.8 | migration z between -2 and 2; enough cells | 6088
USP45 (ubiquitin specific peptidase 45) | -0.47 | migration z between -2 and 2; enough cells | 5360
NUDT12 (nudix hydrolase 12) | 1.15 | migration z between -2 and 2; enough cells | 5120
EPSTI1 (epithelial stromal interaction 1) | 0.6 | migration z between -2 and 2; enough cells | 5166
VPS26B (VPS26 retromer complex component B) | 2.45 (active) | migration z above 2; enough cells | 6548
WNK2 (WNK lysine deficient protein kinase 2) | 0.88 | migration z between -2 and 2; enough cells | 4336
SUB1 (SUB1 regulator of transcription) | 0.24 | migration z between -2 and 2; enough cells | 5911
ZNF654 (zinc finger protein 654) | 3 (active) | migration z above 2; enough cells | 5545
PLEKHN1 (pleckstrin homology domain containing N1) | 1.25 | migration z between -2 and 2; enough cells | 6176
CYB5B (cytochrome b5 type B) | -0.6 | migration z between -2 and 2; enough cells | 6385
TSHZ2 (teashirt zinc finger homeobox 2) | 1.66 | migration z between -2 and 2; enough cells | 6223
GANC (glucosidase alpha, neutral C) | 0.18 | migration z between -2 and 2; enough cells | 5666
TRHDE (thyrotropin releasing hormone degrading enzyme) | -0.31 | migration z between -2 and 2; enough cells | 5785
STYXL2 (serine/threonine/tyrosine interacting like 2) | -0.65 | migration z between -2 and 2; enough cells | 6501

3 entries from above, arranged by “nuclei per well, duplicate mean”, low to high:
target | migration robust z-score | migration class with cell-count check | nuclei per well, duplicate mean
NUDT12 (nudix hydrolase 12) | 1.15 | migration z between -2 and 2; enough cells | 5120
USP45 (ubiquitin specific peptidase 45) | -0.47 | migration z between -2 and 2; enough cells | 5360
EBPL (EBP like) | 0.8 | migration z between -2 and 2; enough cells | 6088
